# Library screening results

Chains of the proteins cited; added tags and fusions are not shown.
UniProt E9BF75, entry or part of it: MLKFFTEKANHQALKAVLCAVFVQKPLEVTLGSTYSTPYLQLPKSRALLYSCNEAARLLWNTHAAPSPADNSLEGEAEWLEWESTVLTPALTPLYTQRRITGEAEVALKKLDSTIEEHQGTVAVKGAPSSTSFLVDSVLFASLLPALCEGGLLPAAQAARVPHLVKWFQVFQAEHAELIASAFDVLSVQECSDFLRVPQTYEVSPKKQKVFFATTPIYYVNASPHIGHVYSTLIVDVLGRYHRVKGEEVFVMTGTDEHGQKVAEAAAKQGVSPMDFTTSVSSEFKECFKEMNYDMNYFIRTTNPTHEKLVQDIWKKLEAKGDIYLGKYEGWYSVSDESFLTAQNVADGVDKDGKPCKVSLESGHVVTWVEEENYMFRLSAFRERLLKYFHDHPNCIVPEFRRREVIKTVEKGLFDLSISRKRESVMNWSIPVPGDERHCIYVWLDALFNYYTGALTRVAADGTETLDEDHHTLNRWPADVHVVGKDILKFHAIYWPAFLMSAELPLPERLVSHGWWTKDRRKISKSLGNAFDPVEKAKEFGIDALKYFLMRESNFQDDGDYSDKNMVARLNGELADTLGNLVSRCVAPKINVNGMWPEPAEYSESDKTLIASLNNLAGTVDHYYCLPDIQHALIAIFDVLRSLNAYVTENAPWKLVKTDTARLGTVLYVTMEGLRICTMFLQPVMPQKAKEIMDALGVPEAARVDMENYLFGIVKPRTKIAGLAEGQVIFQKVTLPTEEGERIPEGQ

Source: ChEMBL document CHEMBL3988442, “University of Dundee, Small-Polar-MMV Screening Library” (2021).

LdMetRS: 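Methionyl-tRNA synthetase (putative), Leishmania donovani (UniProt E9BF75). Primary screen of methionyl-tRNA synthetase; the read-out is not stated. The test concentration is not given. The values are filed as inhibition. Size under these conditions: about 68,000 compounds, about 24 of them at 50% or above in at least one test.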
Mtb heat-shock: 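Assay on Mycobacterium tuberculosis, filed only as a heat shock assay from Cornell; the read-out is not stated. The concentration is filed as 10 mM, unlikely as a test dose, so the dose is not known. The record gives no direction; compounds that gave an IC50 in retests scored well above the rest, so higher reads as stronger inhibition. Of about 69,000 compounds tested this way, about 930 (1.4%) reached 50% or more in at least one test.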

All values are in %. How 0% and 100% were set is not recorded. Most values in the screen are low, and negative values occur. Compounds were drawn at random from those tested, without regard to their results.

Result for CN(C)C(=O)COCc1cncc2c1CCN(Cc1nccn1C)C2 was LdMetRS: 10.24%; Mtb heat-shock: 8.689%. Cc1ccc(CNC(=O)NCCCn2nc3ccccn3c2=O)s1 gave LdMetRS: 13.07%; Mtb heat-shock: -16.4%. For Cc1cc(C)nc(NC(=O)NCCCSc2nncn2C)n1 the result was LdMetRS: -6.954%; Mtb heat-shock: 2.81%. CCN1CCCC(CNC(=O)C2(c3cc(C)cc(C)c3)CCC2)C1 (configuration not stated) gave LdMetRS: 12.01%; Mtb heat-shock: -21.23%. With COc1cn(CC(=O)N2CCC(c3ccccc3)CC2)c(C)cc1=O the screen gave LdMetRS: 11.9%; Mtb heat-shock: -19.68%. O=C(O)C(F)(F)F.O=C(O)C(F)(F)F.[H][C@@]12CN(Cc3cccs3)CCC[C@]1(C(=O)OCC)CN(C(C)C)C2 read Mtb heat-shock: 8.944%. CCn1cnnc1CNC(=O)Cc1ccc2c(c1)OCCO2 gave LdMetRS: 17.09%; Mtb heat-shock: -2.87%. Result for Cc1ccc2nc(-c3cnc(N)nc3)cc(C(=O)N(C)C)c2c1 was LdMetRS: 3.623%; Mtb heat-shock: -0.03022%.

With COC(=O)N1CCC(NC(=O)c2cc(S(N)(=O)=O)ccc2C)CC1 the screen gave LdMetRS: 14.64%; Mtb heat-shock: 3.408%. Result for COc1ccc(-c2ccc(C(=O)N3CCC[C@@H]3CO)o2)cc1 was LdMetRS: 16.72%; Mtb heat-shock: -7.37%. CCc1nc(CC(=O)NCC2(C(N)=O)CCOCC2)cs1 read LdMetRS: 7.436%; Mtb heat-shock: 3.237%. For CN1CCCC(c2cncc(-c3cccc(C(F)(F)F)c3)n2)C1 (configuration not stated) the result was LdMetRS: 5.851%; Mtb heat-shock: 21.68%. Cc1nn(C)c(N2CCOCC2)c1CNCC1CCS(=O)(=O)C1 (configuration not stated) gave LdMetRS: 13.94%; Mtb heat-shock: 33.51%. For Cc1ccc(-c2nc(CNC3CCc4ncnn4C3)no2)cc1 (configuration not stated) the result was LdMetRS: 20.95%; Mtb heat-shock: -15.18%. CNC(=O)NC(=O)CN1CCN(c2ccc(C(=O)OC)cc2)CC1C (configuration not stated) read LdMetRS: 13.69%; Mtb heat-shock: -3.096%. Result for Nc1ncc(-c2ccc(C(F)(F)F)cc2)c(C2CCCNC2)n1 (configuration not stated) was LdMetRS: 24.21%; Mtb heat-shock: 4.907%.

Result for COC(=O)N1CCN(Cc2ccccc2C(C)(C)C#N)CC1 was LdMetRS: 16.03%; Mtb heat-shock: -5.241%. For CN1CCC2(C=C(C(=O)N3CCCC3)c3ccccc32)CC1.O=C(O)C(F)(F)F the result was Mtb heat-shock: -6.082%. With Cc1nc(N(C)C)cc(C2(C)CCCNC2)n1 (configuration not stated) the screen gave LdMetRS: 18.02%; Mtb heat-shock: -6.969%. With Cc1cc(C2CCCN2C(=O)CN(C)Cc2ccccc2)no1 (configuration not stated) the screen gave LdMetRS: 5.556%; Mtb heat-shock: 10.47%. CCn1c(CN2CCCC2)nnc1C1CCN(Cc2ccccn2)CC1 read LdMetRS: 11.29%; Mtb heat-shock: -10.35%. O=C(NCC1CC1)c1cc(Cl)c2c(c1)OCCCO2 read LdMetRS: 2.847%; Mtb heat-shock: 24.5%. For O=C(O)C(F)(F)F.O=C(O)C(F)(F)F.O=C(O)C(F)(F)F.[H][C@]12C[C@@H](Cn3cccn3)N(c3nccs3)[C@@]1([H])CCN(CC1CC1)C2 the result was Mtb heat-shock: -5.195%. Cc1cc(N2CCC(NS(C)(=O)=O)CC2)nc(C(C)C)n1 gave LdMetRS: 12.83%; Mtb heat-shock: 1.416%.

COc1ccccc1CNC(=O)c1[nH]ncc1Cl read LdMetRS: 8.215%; Mtb heat-shock: -9.965%. CNCC(=O)N1CC(c2cc(Nc3ncccn3)nc(C)n2)C1.Cl gave Mtb heat-shock: 8.456%. Cc1nc(C(=O)N2CCOC(Cc3ccccc3)C2)co1 (configuration not stated) read LdMetRS: 3.15%; Mtb heat-shock: 4.326%. Cc1cc(C(=O)Nc2ccn(CCCN3CCCC3)n2)c(C)o1 gave LdMetRS: 12.9%; Mtb heat-shock: -9.866%. For CC(C)NC(=O)N1CCC2(COCc3cnc(N4CCOCC4)nc32)C1 (configuration not stated) the result was LdMetRS: 19.31%; Mtb heat-shock: -51.27%. For Cc1noc(C)c1CN(C)C(=O)NC1CCOCC1 the result was LdMetRS: 15.21%; Mtb heat-shock: -4.921%. CS(=O)(=O)N[C@@H]1COC[C@@H]2CN(Cc3ccoc3)C[C@@H]21 read LdMetRS: -1.918%. For CCOc1ccccc1CNC(=O)NCC(c1cnn(C)c1)N(C)C (configuration not stated) the result was LdMetRS: 17.96%; Mtb heat-shock: -5.72%.

CCc1nc(C)c(C(=O)NCCn2nc3ccccn3c2=O)s1 read LdMetRS: 10.48%; Mtb heat-shock: 2.105%. For CC(C)(C)n1cc(C#N)cc1NC(=O)CCNC(=O)c1ccco1 the result was LdMetRS: 11.17%; Mtb heat-shock: -6.165%. For Cc1nc2c(c(C)c1CC(=O)Nc1ccc(Cl)cc1)c(=O)[nH]n2C the result was LdMetRS: 10.73%; Mtb heat-shock: -2.478%. Cc1cccc(CN2CCC3(CCN(c4ccccn4)C3)C2=O)c1.O=C(O)C(F)(F)F (configuration not stated) read Mtb heat-shock: -55.64%. O=C(NCC(O)c1cccc(F)c1)c1cccnc1O (configuration not stated) read LdMetRS: 17.5%; Mtb heat-shock: -3.552%. With O=C(NC1CCCC1)c1nc(COc2ccc3c(c2)OCO3)no1 the screen gave LdMetRS: 1.809%; Mtb heat-shock: 21.2%.